The source of these data is the supplement of paper PMC12823440, “Inhibitors supercharge kinase turnover through native proteolytic circuits” (Nature, 2025).

By UniProt entry, the sequences of proteins in these tests, tags left out.
UniProt P15056, whole entry, looked up: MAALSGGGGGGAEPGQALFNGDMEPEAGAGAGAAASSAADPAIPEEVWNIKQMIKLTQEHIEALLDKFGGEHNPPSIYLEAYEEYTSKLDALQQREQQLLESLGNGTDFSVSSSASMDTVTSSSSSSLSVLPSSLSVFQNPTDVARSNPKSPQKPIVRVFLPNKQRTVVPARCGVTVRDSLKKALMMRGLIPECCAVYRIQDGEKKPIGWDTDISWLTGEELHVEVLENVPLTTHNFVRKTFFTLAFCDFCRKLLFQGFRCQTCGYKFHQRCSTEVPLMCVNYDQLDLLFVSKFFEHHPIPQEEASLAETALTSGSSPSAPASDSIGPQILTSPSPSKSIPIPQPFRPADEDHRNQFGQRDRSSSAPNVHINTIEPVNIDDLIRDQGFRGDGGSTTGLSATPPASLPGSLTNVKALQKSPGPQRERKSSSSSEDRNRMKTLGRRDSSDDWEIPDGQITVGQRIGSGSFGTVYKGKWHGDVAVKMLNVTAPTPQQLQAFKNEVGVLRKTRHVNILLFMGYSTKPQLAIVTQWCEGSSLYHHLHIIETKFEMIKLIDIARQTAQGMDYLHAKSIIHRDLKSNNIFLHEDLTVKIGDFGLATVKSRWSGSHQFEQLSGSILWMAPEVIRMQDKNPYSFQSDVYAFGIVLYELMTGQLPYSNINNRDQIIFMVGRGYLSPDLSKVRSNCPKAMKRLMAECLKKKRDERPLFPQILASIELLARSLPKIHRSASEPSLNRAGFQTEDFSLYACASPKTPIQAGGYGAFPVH

Each structure is given as a SMILES string. Structures can show the parent of a compound that is named as a salt. The list shows a part of the results. Hit calls seldom repeat between salt and free forms of one compound.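 Kinases, fused to nanoluciferase, were expressed in K562 cells; luminescence was measured every 4 h from 2 to 18 h as percent of control (DMSO = 100%, positive control = 0%). A time point is decreased if signal falls significantly (2 sigma). Hits were called by the authors by a rule that is not shown; the count of time points alone does not decide it.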

This experiment has as its target BRAF (UniProt P15056). Nature of the experiment: number of time points (of 5) at which kinase-Nluc abundance scored as decreased, DMSO-normalised (count); higher = more persistent destabilization. To be noted: K562; 2-18 h.
Regarding `CN1CC[C@@H](c2c(O)cc(O)c3c(=O)cc(-c4ccc(C(F)(F)F)cc4Cl)oc23)[C@@H]1CO` [Voruciclib (hydrochloride)] (10 µM), the “number of time points” value came out at 0. `O=c1cc(-c2cccc3c2Sc2ccccc2S3)oc(N2CCOCC2)c1` (10 µM): the “number of time points” value came out at 0.

Turning to `O=[N+]([O-])c1ccc(Nc2nc(N3CCOCC3)nc(N3CCOCC3)n2)cc1` (10 µM), the “number of time points” value is 0. For `c1ccc(-c2nc(=NCCN3CCOCC3)sn2-c2ccccc2)cc1` [VP3.15 (dihydrobromide)] (10 µM), the “number of time points” value was found to be 0. Next, `Nc1nc(N)c2nc(-c3cccc(O)c3)cnc2n1` (10 µM): 0; `Nc1ncnc2c1c(-c1ccc(Oc3ccccc3)cc1)nn2C1CCN(CCOCCOCCOc2ccc3c(c2)CN(C2CCC(=O)NC2=O)C3=O)CC1` (stereo not drawn) (2.5 µM): 0. Next, `C=CC(=O)N1C[C@H](COc2nc(Nc3cnn(C)c3)nc3[nH]cc(Cl)c23)[C@@H](OC)C1` (2.5 µM): 0; `Cc1nn(C)c2c1C(c1ccc(C(F)(F)F)cc1)C(C#N)=C(N)O2` (stereo not drawn) (10 µM): 0; `O=C(NC1CCOCC1)c1ccc(-c2cc(-c3c[nH]nc3-c3ccccn3)ccn2)cc1` (10 µM): 0.

`CC/C(=N\NC(=O)c1ccnc(NCCCN2CCOCC2)c1)c1ccc(Cl)cc1O` (2.5 µM): the “number of time points” value was 0. In the case of `COc1cc(N2CCOCC2)ccc1Nc1ncc(Cl)c(Nc2ccccc2NS(C)(=O)=O)n1` (2.5 µM), the “number of time points” value stood at 0. As to `Cn1cnc([N+](=O)[O-])c1C[N+](C)(C)C/C=C/C(=O)Nc1cc2c(Nc3ccc(Cl)c(Br)c3)ncnc2cn1` [Tarloxotinib (bromide)] (10 µM), the “number of time points” value was found to be 0. For `O=C(Nc1cccc(C(F)(F)F)c1)c1cccc2cc(Oc3cc(CO)ncn3)ccc12` (10 µM), the “number of time points” value worked out at 0. Next, `Oc1ccc(/C=C/c2cc(O)cc(O)c2)cc1` [Resveratrol] (10 µM): 0.

Consider `O=c1[nH]c(C2CCCN2)nc2c1oc1ccc(Cl)cc12` (stereo not drawn) [XL413 (hydrochloride)] (10 µM), for which the “number of time points” value turned out to be 0. For `CN(c1ccc(NC(=O)Nc2ccc(OC(F)(F)F)cc2)cc1)c1ccnc(Nc2cccc(S(N)(=O)=O)c2)n1` (2.5 µM), the “number of time points” value is 1. For the compound `C=C[C@@](C)(/C=C/c1ccc(O)cc1)CCC=C(C)C` [Bakuchiol] (10 µM), the “number of time points” value was determined as 0. For `COc1cc2ncnc(-n3nc(-c4ccccn4)nc3N)c2cc1OC` (10 µM) the value was 1; for `CNc1nc(Nc2ccc(C(=O)N3CCOCC3)cc2OC)ncc1Cl` (2.5 µM), 0; for `CC(C)S(=O)(=O)c1ccc2nccc(Nc3ccc4scnc4c3)c2c1` (10 µM), 0. In the case of `CC(C)(O)[C@H]1CC[C@H](Nc2ccc3ncc(-c4cccc(C(F)(F)F)c4)n3n2)CC1` (10 µM), the “number of time points” value worked out at 0. Turning to `CCN(CC)c1ccc2cc(-c3nc4cc(C)ccc4o3)c(=O)oc2c1` (10 µM), the “number of time points” value was 0.

On to `CN(C)S(=O)(=O)c1ccc2c(c1)/C(=C/c1cc3c([nH]1)CCCC3)C(=O)N2` (2.5 µM), for which the “number of time points” value came out at 2.

Take `C=CC(=O)Nc1cc(Nc2nccc(-n3cc(CN(C)C)c(-c4ccccc4)n3)n2)c(OC)cc1N1CCOCC1` [Lazertinib] (10 µM): the “number of time points” value stood at 0. Next, `Cc1ccc2c(Nc3cccc(Cl)c3F)nccc2c1NC(=O)c1csc2c(N)ncnc12` [Belvarafenib] (10 µM): 5.

As to `Oc1cc(O)c2c(c1)OC1(c3ccc(O)c(O)c3)Oc3cc(O)c4c(c3C2C1O)OC(c1ccc(O)c(O)c1)C(O)C4` (stereo not drawn) [Procyanidin A1] (10 µM), the “number of time points” value came to 0. Turning to `c1ccc(-c2nc3c(c(-n4ccc5cnccc54)n2)CCC3)nc1` (10 µM), the “number of time points” value was determined as 0. As for `Cc1cc(C)nc(NS(=O)(=O)c2ccc(NC(=S)NC(=O)COc3ccc(Br)cc3Cl)cc2)n1` (2.5 µM), the “number of time points” value is 0. Take `Cc1ccc(NC(=O)c2ccc(CN(CCN(C)C)C(=O)c3cccnc3)cc2)cc1Nc1nccc(-c2cccnc2)n1` [PDGFRα kinase inhibitor 1] (10 µM): the “number of time points” value came to 0. Next, `C[C@H](Nc1ncnc2[nH]cnc12)c1cc2ccc(F)cc2nc1-c1ccccn1` (10 µM): 0. Next, `CN(C)CCC=C1c2ccccc2CCc2ccccc21` [Amitriptyline (hydrochloride)] (2.5 µM): 0; `O=C1/C(=C\c2ccc(Cl)cc2)C=C(c2ccccc2)N1c1ccc(O)cc1` (2.5 µM): 0. Next, `C[C@@H]1CCNC(=O)c2cc3ccc(C(=O)Nc4nc5ccccc5n4CCCN(C)C)cc3n21` (10 µM): 0.
